Assay results published in article PMC12283023.
No constants are given. Whether binding was seen depends on the method and setting. In cells and extracts the contact can be indirect. Some results given as binding are weak or reduced against the parent protein; the word gives no strength.

Experiments:
[1] = biological target: untagged SQSTM1/p62 expressed in HEK293T cells (human) (UniProt Q13501); test: co-IP; HEK293T cells co-transfected with tagged or untagged SQSTM1, HA-CDKN1A or HA-CDKN2A and MYC- or Flag-MAP1LC3, in the presence of baf-A1; IP by Flag, SQSTM1 or HA
[2] = biological target: Flag-tagged SQSTM1/p62 expressed in HEK293T cells (human) (UniProt Q13501); test: as above

| binding [1] | binding [2] | Substance |
| --- | --- | --- |
| binds | binds | HA-tagged CDKN1A/p21 expressed in HEK293T cells (from UniProt P38936 1-164) |
| binds | binds | HA-tagged CDKN2A/p16 expressed in HEK293T cells (from UniProt P42771 1-156) |
